Where a name gives a salt, the structure may show the parent alone. This is one part of the list. No stated cut-off is given here; in the data, active = 0.7 or more and inactive = the rest. Most values come without repeats; read them as rough.
Tested on: MiaPaCa-2 CLSA-25
Test: cell death relative to DMSO vehicle (fraction); higher = more cytotoxic
Details: 5 µM; treatment time 48 h; medium cystine 25 µM

SMILES	cell death
COc1ccc(-c2oc3c(CC=C(C)C)c(O[C@@H]4O[C@H](CO)[C@@H](O)[C@H](O)[C@H]4O)cc(O)c3c(=O)c2O[C@@H]2O[C@@H](C)[C@H](O)[C@@H](O)[C@H]2O)cc1 [Icariin]	inactive: 0.00578
N#Cc1cc(-c2n[nH]c(-c3ccncc3)n2)ccn1 [Topiroxostat]	inactive: 0.0714
CC(CN)C(=O)O (racemic)	inactive: 0.0348
C[C@H]1c2cccc(O)c2C(=O)C2=C(O)[C@]3(O)C(=O)C(C(N)=O)=C(O)[C@@H](N(C)C)[C@@H]3[C@@H](O)[C@@H]21 [Doxycycline hyclate]	inactive: 0.0976
Cc1ccccc1C(C(=O)NC1CCCCC1)N(C(=O)Cn1ccnc1C)c1cccc(F)c1 (stereo unspecified)	inactive: 0.0851
NC(=O)CCCCC1CCSS1 (stereo unspecified) [Thioctamide]	inactive: -0.00963
NC(=O)NCCC(=O)O [3-Ureidopropionic acid]	inactive: 0.383
Cc1oncc1C(=O)Nc1ccc(C(F)(F)F)cc1 [Leflunomide]	active: 0.77
O=c1cc(-c2ccc(O)c(-c3c(O)cc(O)c4c(=O)cc(-c5ccc(O)cc5)oc34)c2)oc2cc(O)cc(O)c12 [Amentoflavone]	inactive: 0.188
CCN(CC)C(=O)N1CCN(C)CC1 [Diethylcarbamazine citrate]	inactive: 0.452
O=C(O)c1ccc2c(c1)nc(Nc1cccc(Cl)c1)c1ccncc12 [Silmitasertib]	active: 0.742
Nc1ccccc1S(N)(=O)=O [2-Aminobenzenesulfonamide]	inactive: 0.147
OCc1ccccn1 [2-(Hydroxymethyl)pyridine]	inactive: 0.0995
O=CN1CC/C(=C/c2ccc3c(c2)OCO3)C1=O	inactive: 0.0851
N#Cc1ccc(Cn2cncc2CN2CCN(c3cccc(Cl)c3)C(=O)C2)cc1	inactive: 0.43
COc1cc(C[C@H]2C(=O)OC[C@@H]2Cc2ccc(OC)c(OC)c2)ccc1O [Arctigenin]	inactive: 0.0391
O=c1c(O)c(-c2ccccc2)oc2cc(O)cc(O)c12 [Galangin]	inactive: 0.138
NC(=O)CC[C@H](N)C(=O)O [L-Glutamine]	active: 0.867
Nc1ccc(O)c(C(=O)O)c1 [Mesalamine]	inactive: 0.562
O=C(O)C(S)=Cc1c[nH]c2ccc(F)cc12	inactive: 0.161
CCC(=O)O[C@]1(C(=O)SCF)[C@H](C)C[C@H]2[C@@H]3C[C@H](F)C4=CC(=O)C=C[C@]4(C)[C@@]3(F)[C@@H](O)C[C@@]21C [Fluticasone propionate]	active: 0.772
O=C(NCCN1CCOCC1)Nc1ccc(C(=O)/C=C/c2cccc(N3CCOCC3)n2)cc1	inactive: 0.63

SMILES	cell death
C[C@H](O)C(=O)O [L-Lactic acid]	inactive: 0.55
O=C(/C=C/c1ccc2ccccc2n1)c1ccncc1	active: 0.745
CN1CCN(C(=O)C2C(C(=O)O)[C@H]3CC[C@@H]2O3)CC1 (stereo partly specified)	inactive: 0.203
CC(=O)NC[C@H]1CN(c2ccc(N3CCOCC3)c(F)c2)C(=O)O1 [Linezolid]	inactive: -0.0356
CCN(CC)C(=S)SSC(=S)N(CC)CC [Disulfiram]	active: 0.805
Cc1c(O)cccc1C(=O)N[C@@H](CSc1ccccc1)[C@H](O)CN1C[C@H]2CCCC[C@H]2C[C@H]1C(=O)NC(C)(C)C [Nelfinavir Mesylate]	inactive: 0.522
c1cc(-c2cnn3cc(-c4ccc(OCCN5CCCCC5)cc4)cnc23)ccn1 [Dorsomorphin dihydrochloride]	inactive: 0.561
COc1c(C)cnc(Cn2cnc3c(Cl)nc(N)nc32)c1C	inactive: 0.536
Cn1c(=O)cc(C(=O)Nc2ccc3c(c2)OCCO3)c2ccccc21	inactive: 0.0843
CSCC[C@H](N)C(=O)O [L-Methionine]	inactive: 0.477
OCC(CO)N[C@H]1C[C@](O)(CO)[C@@H](O)[C@H](O)[C@H]1O [Voglibose]	inactive: 0.557
CCc1ccc(CCOc2ccc(CC3SC(=O)NC3=O)cc2)nc1 (stereo unspecified) [Pioglitazone hydrochloride]	active: 0.843
CC#C[C@]1(O)CC[C@H]2[C@@H]3CCC4=CC(=O)CCC4=C3[C@@H](c3ccc(N(C)C)cc3)C[C@@]21C [Mifepristone]	inactive: 0.173
O=C(Nc1ccccc1)c1cc([N+](=O)[O-])ccc1Cl	inactive: -0.00482
Cc1c(C(=O)N2CCOc3ccc(-c4ccc(N)nc4)cc3C2)ccc(S(C)(=O)=O)c1F	inactive: 0.471
CCCCCCCCCCCCCCOc1ccc(C(=O)O)o1	active: 0.84
O=C(O)CC(=O)C(=O)O [Oxaloacetic acid]	inactive: 0.106
CC(C)C(=O)c1c(C(C)C)nn2ccccc12 [Ibudilast]	inactive: 0.264
CC1=C(/C=C/C(C)=C/C=C/C(C)=C/C(=O)O)C(C)(C)CCC1 [Tretinoin]	inactive: 0.499
c1ccc(-c2ccc(C(c3ccccc3)n3ccnc3)cc2)cc1 (stereo unspecified) [Bifonazole]	inactive: 0.189
NS(=O)(=O)c1cc2c(cc1Cl)N=C(CSCc1ccccc1)NS2(=O)=O [Benzthiazide]	inactive: 0.129
COC(=O)Nc1nc2cc([S+]([O-])c3ccccc3)ccc2[nH]1 (stereo unspecified) [Oxfendazole]	inactive: 0.113

Of the compounds above, these contain four or more nitrogen atoms:
SMILES	cell death
N#Cc1cc(-c2n[nH]c(-c3ccncc3)n2)ccn1 [Topiroxostat]	inactive: 0.0714
Cc1ccccc1C(C(=O)NC1CCCCC1)N(C(=O)Cn1ccnc1C)c1cccc(F)c1 (stereo unspecified)	inactive: 0.0851
N#Cc1ccc(Cn2cncc2CN2CCN(c3cccc(Cl)c3)C(=O)C2)cc1	inactive: 0.43
O=C(NCCN1CCOCC1)Nc1ccc(C(=O)/C=C/c2cccc(N3CCOCC3)n2)cc1	inactive: 0.63
c1cc(-c2cnn3cc(-c4ccc(OCCN5CCCCC5)cc4)cnc23)ccn1 [Dorsomorphin dihydrochloride]	inactive: 0.561
COc1c(C)cnc(Cn2cnc3c(Cl)nc(N)nc32)c1C	inactive: 0.536

(next part)

SMILES	cell death
COc1cccc(-c2ccc(NC(=O)C3=C(C(=O)O)CCC3)c(F)c2)c1 [Vidofludimus]	inactive: 0.539
C[C@]12CCC(=O)C=C1CC[C@@H]1[C@@H]2[C@@H](O)C[C@@]2(C)[C@H]1CC[C@]2(O)C(=O)CO [Hydrocortisone]	inactive: 0.165
CNC(=C[N+](=O)[O-])NCCSCc1csc(CN(C)C)n1 [Nizatidine]	inactive: 0.0431
CC[C@H]1[C@@H](O)[C@@H]2[C@H](CC[C@]3(C)[C@@H]([C@H](C)CCC(=O)O)CC[C@@H]23)[C@@]2(C)CC[C@@H](O)C[C@@H]12 [Obeticholic Acid]	inactive: 0.157
CN(C(=O)n1cnc(-c2ccc[n+]([O-])c2)c1)C1CCCCC1	inactive: 0.13
COc1ccccc1OCC(O)COC(N)=O (stereo unspecified) [Methocarbamol]	inactive: 0.0891
CCOC(=O)[C@H](CCc1ccccc1)N[C@@H](C)C(=O)N1CCC[C@H]1C(=O)O [Enalapril Maleate]	inactive: 0.18
COc1cccc(CNc2ccc(S(=O)(=O)Nc3nc4ccccc4s3)cc2)c1O	inactive: 0.492
NC(N)=O	inactive: 0.227
Cc1cccc(C)c1OCC(=O)N[C@@H](Cc1ccccc1)[C@@H](O)C[C@H](Cc1ccccc1)NC(=O)[C@H](C(C)C)N1CCCNC1=O [Lopinavir]	inactive: 0.177
CC(C)(Oc1ccc(C(=O)c2ccc(Cl)cc2)cc1)C(=O)O [Choline Fenofibrate]	active: 0.858
O=c1c(O)c(-c2ccc(O)cc2)oc2cc(O)cc(O)c12 [Kaempferol]	inactive: 0.147
Cn1cc(C(=O)Nc2ccc3c(c2)OCCO3)c2ccccc2c1=O	inactive: 0
Cc1ccccc1N1C(=O)c2cc(S(N)(=O)=O)c(Cl)cc2NC1C (stereo unspecified) [Metolazone]	inactive: 0.0813
O=C(Nc1ccncc1)c1cc([N+](=O)[O-])ccc1Cl	inactive: 0.338
Cc1ccccc1N=Nc1ccc(NC(=O)c2ccnn2C)c(C)c1	inactive: 0.0118
CCc1c(C(=O)C(N)=O)c2c(OCC(=O)O)cccc2n1Cc1ccccc1 [Varespladib]	inactive: 0.199
COc1ccc(C(NC(=O)c2cnc(-c3cccnn3)[nH]c2=O)c2ccc(OC)cc2)cc1	active: 0.701
O=C(NCc1ccc2c(c1)OCO2)c1c(Cl)cccc1Cl	inactive: 0.599
CN(CCOc1ccc(CC2SC(=O)NC2=O)cc1)c1ccccn1 (stereo unspecified) [Rosiglitazone]	inactive: -0.0302
CC(=O)Oc1cccc2c1C(=O)c1c(OC(C)=O)cc(C(=O)O)cc1C2=O [Diacerein]	inactive: -0.0372
O=C(COCC(=O)Nc1ccc(Cl)cc1C(=O)O)Nc1cccc(-c2ccoc2)c1	inactive: 0.00722

Source: the supplement of paper PMC12872613
